Assay: general procedure: Fmoc solid-phase peptide synthesis; 2-CT-Cl resin
Settings: whole synthesis; for isolated yield: overall

Row | Substance | final HPLC purity (% Area) [%] | isolated yield [%]
1 | D-Dap 8-Arg10-teixobactin | 99.52 | 11.8
2 | D-Phe 1-D-Dap8-Arg10-teixobactin |  | 8.2
